Test results from PubChem BioAssay AID2685 (National Center for Advancing Translational Sciences (NCATS), 2010).
The other results are listed elsewhere or left out. The main result of the screen is listed elsewhere. These columns were measured beside it and carry no call. The list favours compounds with an active or inconclusive main result. Words in brackets tell the shape of the fitted curve; partial curves, single points and poor fits give uncertain potencies.

Assay: qHTS Assay for Lipid Storage Modulators in Drosophila S3 Cells;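 for cell number change: cells counted by Cell Tracker Red CMTPX staining in the red channel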
Settings: BODIPY lipid droplet fluorescence, 18-24 h; for cell number change: measured here: cell count max response, cells fed with added oleic acid
Summary of the method: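 Drosophila S3 cells loaded with oleic acid (400 uM, as added) and compounds at several concentrations; lipid droplets imaged by 488-nm laser-scanning cytometry, 500–530 nm intensity and object ratio to cell channel. Percent activity normalized to 20 uM Triacsin C.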

[1] = measured here: cell number channel AC50, cells fed with added oleic acid
[2] = measured here: lipid fluorescence (Fed channel) AC50, cells fed with added oleic acid

CC1CCCCN1C(=O)CCn1c(=O)oc2ccccc21 (centres undefined)
cell number change: -26.8%
AC50 [1]: 0.092 µM [falling, full curve, poor fit]

N=c1c2c(ncn1Cc1ccco1)Oc1ccc3ccccc3c1C2c1ccccc1 (centres undefined)
AC50 [1]: 6.51 µM [rising, single point]
AC50 [2]: 20.6 µM [falling, single point]

CC(C)(C)NC(=O)N1CCC(CO)(Cc2ccccc2Cl)CC1
cell number change: -45.9%
AC50 [1]: 29.1 µM [falling, single point]
AC50 [2]: 29.1 µM [falling, single point]

Nc1cccc2c3c(oc12)CCCC3
cell number change: -23.2%
AC50 [2]: 0.58 µM [rising, single point]

NC(=O)CSc1nnc(-c2ccc([N+](=O)[O-])cc2)o1
cell number change: -44.4%
AC50 [1]: 0.651 µM [falling, full curve]
AC50 [2]: 0.731 µM [falling, full curve]

CCCN(Cc1nnc(-c2cccs2)o1)C(=O)CN1C(=O)NC2(CCCCC2C)C1=O (centres undefined)
cell number change: -34%
AC50 [1]: 23.1 µM [falling, single point]
AC50 [2]: 8.2 µM [rising, partial curve]

CCCCC(c1nnnn1CC1CCCO1)N1CCN(c2nc3ccccc3s2)CC1 (centres undefined)
cell number change: -7.04%
AC50 [2]: 4.61 µM [rising, partial curve]

CSc1nsc(SCC(=O)Nc2ccc(NC(C)=O)cc2)n1
cell number change: 3.42%

CCSc1ccccc1C(=O)NCc1ccco1
cell number change: 6.8%

FC(F)(F)c1cccc(N2CCN(CC3CC=CCC3)CC2)c1 (centres undefined)
cell number change: -27.5%
AC50 [2]: 0.731 µM [falling, single point]

COc1ccc(-n2c(NCCN(C)C)nc3sc4c(c3c2=O)CCCCC4)cc1
cell number change: 4.89%
AC50 [1]: 0.13 µM [falling, full curve, poor fit]

COc1cc(NC(=O)CN2C(=O)NC(CC(C)C)C2=O)cc(OC)c1OC (centres undefined)
cell number change: 26.7%
AC50 [1]: 2.31 µM [falling, single point]
AC50 [2]: 3.26 µM [falling, single point]

S=c1[nH]cnc2sc(-c3ccccc3)cc12
AC50 [2]: 0.651 µM [rising, full curve, poor fit]

O=C(COC(=O)c1ccc(Cl)cc1O)NC(=O)C1CCCCC1
cell number change: 3.42%
AC50 [2]: 4.61 µM [falling, single point]

CCOC(=O)Cn1nnnc1CN(Cc1ccccc1)Cc1cc2cc(CC)ccc2[nH]c1=O
cell number change: -20.4%

Cc1ccc(C(=O)NC(C(=O)NC2CCCC2)c2ccccc2)cc1 (centres undefined)
cell number change: -3.15%
AC50 [2]: 18.4 µM [rising, single point]

COc1ccc(C(C(=O)NC2CCCC2)N(C(=O)Cc2cccs2)C2CC2)cc1OC (centres undefined)
cell number change: -6.58%

COc1cc(Cc2ccc(N)c(OC)c2)ccc1N
cell number change: 31.7%
AC50 [2]: 1.46 µM [rising, partial curve]

CC1(C)CC(=O)c2cn3c(nc2C1)nc1ccccc13
cell number change: -6.72%
AC50 [1]: 0.92 µM [falling, full curve]
AC50 [2]: 0.00411 µM [falling, full curve, poor fit]

COc1cccc(OCc2nc3ncc(Br)cc3[nH]2)c1
cell number change: 17.1%
AC50 [2]: 0.00461 µM [rising, full curve, poor fit]

Cc1nc(NC(=O)CSc2nnc(-c3ccc4c(c3)OCO4)o2)c(Cl)cc1Cl
cell number change: 14.9%
AC50 [2]: 2.91 µM [rising, partial curve]

O=C(O)c1ccc(Cl)c(S(=O)(=O)N2CCCC2)c1
cell number change: 24.3%
AC50 [2]: 0.517 µM [rising, partial curve]

O=P(O)(CN1CCCCC1)CN1CCCCC1
cell number change: -89.9%
AC50 [2]: 20.6 µM [falling, partial curve]

COC(=O)[C@@H]1CC(O)CN1C(=O)C12CC3CC(CC(C3)C1)C2 (some centres undefined)
cell number change: -17.6%
AC50 [2]: 8.2 µM [falling, partial curve, poor fit]

O=C1N=C(N2CCOCC2)S/C1=C1\C(=O)N(Cc2ccccc2)c2ccc(Br)cc21
cell number change: 7.07%

CNC(=O)NC(=O)CSc1nc2sccc2c(=O)n1-c1ccccc1
cell number change: -13.3%
AC50 [2]: 6.51 µM [falling, single point]

CC1CCCN(C(=O)c2cc3ccccc3cc2O)C1 (centres undefined)
cell number change: 37.6%

CC1CC(C)CN(C(=O)COC(=O)c2ccc[nH]c2=O)C1 (centres undefined)
cell number change: 0.54%
AC50 [2]: 0.00411 µM [falling, full curve, poor fit]

COc1cccc(N2CC(NC(=O)C(=O)c3c(C)[nH]c4ccccc34)CC2=O)c1 (centres undefined)
cell number change: 38%
AC50 [1]: 0.58 µM [rising, partial curve]

C=CCNC(=O)NC(=O)COC(=O)/C=C/c1cccc([N+](=O)[O-])c1
cell number change: -11.3%
AC50 [1]: 0.00461 µM [falling, full curve, poor fit]
AC50 [2]: 16.4 µM [falling, partial curve]

Cc1noc(C)c1S(=O)(=O)N(CC(=O)N1CCCCCC1)c1ccc(C(C)C)cc1
cell number change: 2.5%
AC50 [2]: 25.9 µM [falling, single point]

C=CCn1cccc(C(=O)Nc2ccc(OC)c(Cl)c2)c1=O
cell number change: 16.8%

CC1CCCN(C(=O)c2ccc(S(=O)(=O)Nc3ccccc3Cl)cc2)C1 (centres undefined)
cell number change: -17.4%
AC50 [2]: 14.6 µM [falling, partial curve, poor fit]

COc1ccc(CCNC(=O)Nc2ccccc2[N+](=O)[O-])cc1
cell number change: 111%
AC50 [1]: 16.4 µM [rising, partial curve]
AC50 [2]: 25.9 µM [rising, single point]

O=C(Nc1cc(S(=O)(=O)N2CCCCC2)ccc1Cl)c1ccc(F)cc1
cell number change: 15.2%
AC50 [1]: 6.51 µM [rising, single point]
AC50 [2]: 6.51 µM [rising, partial curve, poor fit]

Cc1ccc(C)c(Cn2c(=O)n(C)c(=O)c3sccc32)c1
cell number change: 35.1%
AC50 [1]: 32.6 µM [rising, single point]
AC50 [2]: 29.1 µM [rising, single point]

O=C(CCc1nc2ccccc2[nH]1)NCc1ccc2c(c1)OCO2
cell number change: 30.7%
AC50 [1]: 0.731 µM [rising, full curve, poor fit]

O=C(NNS(=O)(=O)c1ccc(C(=O)NC2CCCC2)cc1)c1ccncc1
cell number change: -49.8%
AC50 [1]: 25.9 µM [falling, single point]
AC50 [2]: 18.4 µM [falling, partial curve]

N#C/C(=C\c1ccc([N+](=O)[O-])cc1)C(=O)NCCCn1ccnc1
cell number change: 1.39%

Cn1c2c(c(=O)n(C)c1=O)C(c1cccc(F)c1)C(C#N)=C(N)O2 (centres undefined)
cell number change: -4.97%
AC50 [2]: 0.00651 µM [falling, full curve, poor fit]

O=C(CN1C2=NCCN2c2ccccc21)c1ccc(Br)cc1
cell number change: 12.3%
AC50 [2]: 5.17 µM [rising, full curve, poor fit]

CCOC(=O)C1=C(CN2CCN(C(=O)c3ccco3)CC2)NC(=O)NC1c1ccc(C)cc1 (centres undefined)
cell number change: -14.9%
AC50 [2]: 6.51 µM [falling, single point]

COC(=O)c1ccccc1NC(=O)c1cnn2c(C(F)F)cc(C3CC3)nc12
AC50 [1]: 0.58 µM [rising, single point]
AC50 [2]: 0.58 µM [rising, single point]

NC(=O)N/N=C/c1coc2ccc3ccccc3c2c1=O
cell number change: -56.5%
AC50 [1]: 10.3 µM [falling, partial curve]
AC50 [2]: 10.3 µM [falling, partial curve]

CCOC(=O)CN1C(=O)NC2(CCCc3ccccc32)C1=O (centres undefined)
cell number change: 9.21%
AC50 [2]: 0.631 µM [falling, partial curve, poor fit]

COc1ccc(NC(=O)CCCN2C(=O)CN(C)C2=O)cc1Cl
cell number change: 5.58%
AC50 [1]: 0.164 µM [falling, full curve, poor fit]
AC50 [2]: 0.164 µM [falling, full curve, poor fit]

Cc1ccc(S(=O)(=O)NCc2cn3ccccc3n2)c(C)c1
cell number change: -17.6%

COCCN(CCOC)c1nc(-c2ccc(C)cc2)nc2ccccc12
cell number change: 36.5%
AC50 [1]: 29.1 µM [rising, single point]
AC50 [2]: 0.82 µM [falling, single point]

CC(C)C(c1nnnn1C1CCCC1)N1CCC(C(N)=O)CC1 (centres undefined)
cell number change: 3%
AC50 [2]: 0.82 µM [rising, single point]

O=S(=O)(c1ccc(F)cc1)N1CCN(CC(O)COCc2cccs2)CC1 (centres undefined)
cell number change: 6.07%
AC50 [2]: 29.1 µM [rising, single point]

CN(C)C(=O)c1cc(C(=O)c2ccc(C(F)(F)F)cc2F)c[nH]1
AC50 [2]: 0.58 µM [falling, single point]

O=C(c1ccc(Cl)c(S(=O)(=O)N2CCCCC2)c1)N1CCCCC1
cell number change: -4.95%

CCC1CCCCN1CCCNC(=O)c1ccc2c(=O)n(Cc3ccc(OC)cc3)c(=O)[nH]c2c1 (centres undefined)
cell number change: -8.31%
AC50 [2]: 0.00411 µM [rising, full curve, poor fit]

Oc1ccc(-c2sc(Nc3ccccc3)n[n+]2-c2ccc(F)cc2)cc1
cell number change: 2.4%

Cc1ccccc1-n1cnnc1SCC(=O)Nc1cccnc1Cl
cell number change: -2.04%
AC50 [2]: 3.66 µM [falling, single point]

CCOc1ccccc1NC(=O)CCNS(=O)(=O)c1cccc2nonc12
cell number change: -0.417%
AC50 [2]: 0.13 µM [rising, single point]

COC(=O)Cn1c(=O)c2c(nc(Br)n2CC(=O)OC)n(C)c1=O
cell number change: 22.5%
AC50 [2]: 0.82 µM [falling, single point]

Cc1cccc(NC(=O)Cn2cnc3ccccc3c2=O)c1C
cell number change: -13.2%
AC50 [2]: 18.4 µM [falling, single point]

Cc1ccc(-c2nnn(CC(=O)N(c3ccccc3)C(C(=O)NC3CCCC3)c3ccncc3)n2)o1 (centres undefined)
cell number change: 28.2%

CC(NC(=S)NC1CCCCC1)C(c1cccs1)N1CCOCC1 (centres undefined)
cell number change: -6.46%
AC50 [2]: 1.84 µM [falling, partial curve, poor fit]
